Assay results: the supplement of paper PMC4604168 (melanoma cell lines)
This is one part of the list. Single values are uncertain, as repeats are few or missing.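 Imaging used 1,536-well plates; nuclei positive for cleaved PARP by antibody were divided by total DNA-stained nuclei to yield the apoptosis fraction. Doses for screening kept most cells viable, and cell lines differ markedly in resting and induced cleaved-PARP levels.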

Tests used:
Assay in all cases: cleaved PARP positive nuclei fraction relative to DMSO control; melanoma cells; higher = more apoptosis
Details in all cases: library dose: low library concentration; 72 h
A101D = test system: A101D
A2058 = test system: A2058
A375 = test system: A375
C32 = test system: C32
CBRC008 = test system: CBRC008 (line from a melanoma biopsy)
CBRC013 = test system: CBRC013 (line from a melanoma biopsy)
CBRC014 = test system: CBRC014 (line from a melanoma biopsy)
CBRC016 = test system: CBRC016 (line from a melanoma biopsy)
CBRC017 = test system: CBRC017 (line from a melanoma biopsy)
COLO792 = test system: COLO792
COLO800 = test system: COLO800
COLO829 = test system: COLO829
G361 = test system: G361
IPC-298 = test system: IPC-298
IST-MEL1 = test system: IST-MEL1
LOXIMVI = test system: LOXIMVI
MEL-HO = test system: MEL-HO
501Mel = test system: 501Mel
LB2518-MEL = test system: LB2518-MEL
CBRC034 = test system: CBRC034 (line from a melanoma biopsy)

Structure (SMILES) | cleaved PARP positive nuclei fraction (A101D) [%] | cleaved PARP positive nuclei fraction (A2058) [%] | cleaved PARP positive nuclei fraction (A375) [%] | cleaved PARP positive nuclei fraction (C32) [%] | cleaved PARP positive nuclei fraction (CBRC008) [%] | cleaved PARP positive nuclei fraction (CBRC013) [%] | cleaved PARP positive nuclei fraction (CBRC014) [%] | cleaved PARP positive nuclei fraction (CBRC016) [%] | cleaved PARP positive nuclei fraction (CBRC017) [%] | cleaved PARP positive nuclei fraction (COLO792) [%] | cleaved PARP positive nuclei fraction (COLO800) [%] | cleaved PARP positive nuclei fraction (COLO829) [%] | cleaved PARP positive nuclei fraction (G361) [%] | cleaved PARP positive nuclei fraction (IPC-298) [%] | cleaved PARP positive nuclei fraction (IST-MEL1) [%] | cleaved PARP positive nuclei fraction (LOXIMVI) [%] | cleaved PARP positive nuclei fraction (MEL-HO) [%] | cleaved PARP positive nuclei fraction (501Mel) [%] | cleaved PARP positive nuclei fraction (LB2518-MEL) [%] | cleaved PARP positive nuclei fraction (CBRC034) [%]
CC(C)C[C@H](NC(=O)[C@H](Cc1ccccc1)NC(=O)c1cnccn1)B(O)O [Bortezomib] + CC1(C)NC(=O)N(c2ccc([N+](=O)[O-])c(C(F)(F)F)c2)C1=O [nilutamide] (first compound 0.001 µM, partner dose 1 µM) | 551 | 42 | 59.9 | 127 | 2270 | 118 | 251 | 153 | 324 | 49.3 | 110 | 164 | 897 | 54.3 | 56.7 | 131 | 127 |  |  | 
CO[C@H]1C[C@@H]2CC[C@@H](C)[C@@](O)(O2)C(=O)C(=O)N2CCCC[C@H]2C(=O)O[C@H]([C@H](C)C[C@@H]2CC[C@@H](OCCO)[C@H](OC)C2)CC(=O)[C@H](C)/C=C(\C)[C@@H](O)[C@@H](OC)C(=O)[C@H](C)C[C@H](C)/C=C/C=C/C=C/1C [everolimus] + OCCn1cc(-c2cnc3nnn(Cc4ccc5ncccc5c4)c3n2)cn1 [PF04217903] (first compound 0.02 µM, partner dose 1 µM) | 56.2 | 66 | 508 | 26.8 | 387 | 65.7 | 74.1 | 110 | 91.5 | 233 | 77.3 | 189 | 235 | 120 | 191 | 52.1 | 75.9 |  |  | 
Cc1cc(Nc2cc(N3CCN(C)CC3)nc(/C=C/c3ccccc3)n2)n[nH]1 + CN(NC(=O)CC(=O)NN(C)C(=S)c1ccccc1)C(=S)c1ccccc1 [STA4783] (first compound 0.04 µM, partner dose 0.006 µM) | 81.3 | 85.6 | 1320 | 55.8 | 2040 | 141 | 866 | 189 | 391 | 90.8 | 150 | 247 | 89.5 | 96.9 | 73.3 | 51.8 | 74.8 |  |  | 
Cn1c(=O)n(-c2ccc(C(C)(C)C#N)cc2)c2c3cc(-c4cnc5ccccc5c4)ccc3ncc21 + CC(C)(C)c1cnc(CSc2cnc(NC(=O)C3CCNCC3)s2)o1 [SNS-032] (first compound 0.004 µM, partner dose 0.01 µM) | 92.6 | 230 | 82.5 | 98.2 | 111 | 92.9 | 91.9 | 64.9 | 156 | 159 | 92 | 150 | 60.7 | 44.3 | 50.4 | 126 | 166 |  |  | 
CO[C@H]1C[C@@H]2CC[C@@H](C)[C@@](O)(O2)C(=O)C(=O)N2CCCC[C@H]2C(=O)O[C@H]([C@H](C)C[C@@H]2CC[C@@H](OCCO)[C@H](OC)C2)CC(=O)[C@H](C)/C=C(\C)[C@@H](O)[C@@H](OC)C(=O)[C@H](C)C[C@H](C)/C=C/C=C/C=C/1C [everolimus] + CN(C)S(=O)(=O)c1ccc2c(c1)/C(=C/c1cc3c([nH]1)CCCC3)C(=O)N2 [SU6656] (first compound 0.02 µM, partner dose 0.4 µM) | 102 | 198 | 167 | 106 | 197 | 60.1 | 98.3 | 31.4 | 76.3 | 94 | 61.5 | 193 | 99.7 | 60.3 | 124 | 321 | 532 |  |  | 
CCCS(=O)(=O)Nc1ccc(F)c(C(=O)c2c[nH]c3ncc(Cl)cc23)c1F + COc1cc2ncnc(Nc3ccc(Oc4ccccc4)cc3)c2cc1OC [SrcI1] (first compound 0.08 µM, partner dose 2 µM) | 23.4 | 25.9 |  | 57.6 | 177 |  | 133 | 63.9 | 171 | 71.7 | 85.5 | 82.5 | 97.8 | 34.8 | 169 | 85.7 |  | 143 | 24.1 | 
CCCS(=O)(=O)Nc1ccc(F)c(C(=O)c2c[nH]c3ncc(Cl)cc23)c1F + Cc1cc(N2CCOCC2)cc2[nH]c(-c3c(NC[C@@H](O)c4cccc(Cl)c4)cc[nH]c3=O)nc12 [BMS536924] (first compound 0.08 µM, partner dose 0.2 µM) | 210 | 142 | 63.5 | 450 | 242 | 67.4 | 94.2 | 99.6 | 128 | 81.5 | 44.3 | 138 | 91.9 | 101 | 25.4 | 73.8 | 62.9 |  |  | 
Cc1cc(Nc2cc(N3CCN(C)CC3)nc(/C=C/c3ccccc3)n2)n[nH]1 + O=C(O)C(=O)Nc1sc2c(c1C(=O)O)CCNC2 [TCS401] (first compound 0.04 µM, partner dose 1.66667 µM) | 51.2 | 114 |  | 148 | 57.1 |  | 95.8 | 44.6 | 97.4 | 92.4 | 116 | 187 | 21.4 | 58.7 | 75.6 | 73.4 |  | 198 | 122 | 
O=C(O)c1ccc2c(c1)nc(Nc1cccc(Cl)c1)c1ccncc12 + C=CCn1c(=O)c2cnc(Nc3ccc(N4CCN(C)CC4)cc3)nc2n1-c1cccc(C(C)(C)O)n1 [MK1775] (first compound 0.4 µM, partner dose 0.02 µM) | 216 | 86.1 | 112 | 96.9 | 181 | 126 | 152 | 272 | 137 | 156 | 56.4 | 41.9 | 161 | 98.7 | 72.3 | 64.1 | 71.2 |  |  | 
Nc1ccn([C@@H]2O[C@H](CO)[C@@H](O)C2(F)F)c(=O)n1 [gemcitabine] + O=C(CCCCCCC(=O)Nc1ccccc1)NO [vorinostat] (first compound 0.0004 µM, partner dose 0.08 µM) | 71.9 | 135 | 72.5 | 67.2 | 46.7 | 70.7 | 153 | 230 | 117 | 95.8 | 220 | 104 | 167 | 162 | 181 | 77.5 | 86.7 |  |  | 
O=C(O)[C@@H]1[O][Sb](=[O])([O][Sb]2(=[O])[O][C@H]([C@H](O)CO)[C@H](O)[C@H](C(=O)O)[O]2)[O][C@H]([C@H](O)CO)[C@@H]1O (some centres undefined) [stibogluconate] + Cn1cncc1[C@@](N)(c1ccc(Cl)cc1)c1ccc2c(c1)c(-c1cccc(Cl)c1)cc(=O)n2C [tipifarnib] (first compound 2 µM, partner dose 0.01 µM) | 72.5 | 69 | 87.3 | 137 | 115 | 107 | 86.3 | 105 | 145 | 77.6 | 143 | 117 | 74.2 | 49.4 | 105 | 232 | 229 |  |  | 
CC(C)C[C@H](NC(=O)[C@H](Cc1ccccc1)NC(=O)c1cnccn1)B(O)O [Bortezomib] + Cn1cncc1[C@@](N)(c1ccc(Cl)cc1)c1ccc2c(c1)c(-c1cccc(Cl)c1)cc(=O)n2C [tipifarnib] (first compound 0.001 µM, partner dose 0.01 µM) | 255 | 102 | 182 | 43.3 | 917 | 86.6 | 187 | 413 | 503 | 169 | 85.9 | 185 | 1790 | 275 | 138 | 32.3 | 152 |  |  | 
Nc1ncn([C@H]2C[C@H](O)[C@@H](CO)O2)c(=O)n1 [decitabine] + CCN(CC)CCCCNc1ncc2cc(-c3cc(OC)cc(OC)c3)c(NC(=O)NC(C)(C)C)nc2n1 [PD173074] (first compound 0.1 µM, partner dose 0.1 µM) | 9.97 | 73.8 |  | 44.2 | 290 |  | 117 | 73.1 | 102 | 137 | 41.8 | 336 | 150 | 166 | 168 | 151 |  | 67.3 | 73.8 | 
Cc1cc(Nc2cc(N3CCN(C)CC3)nc(/C=C/c3ccccc3)n2)n[nH]1 + COc1cc(N2CCC(N3CCN(C)CC3)CC2)ccc1Nc1ncc(Cl)c(Nc2ccccc2S(=O)(=O)C(C)C)n1 [NVP-TAE684] (first compound 0.04 µM, partner dose 0.08 µM) | 22.8 | 110 |  | 43.8 | 100 |  | 95.4 | 28.9 | 74.7 | 107 | 42.6 | 63.2 | 79.6 | 96 | 152 | 109 |  | 258 | 63.5 | 
CCCS(=O)(=O)Nc1ccc(F)c(C(=O)c2c[nH]c3ncc(Cl)cc23)c1F + COc1cc2c(Oc3ccc4[nH]c(C)cc4c3F)ncnc2cc1OCCCN1CCCC1 [cediranib] (first compound 0.08 µM, partner dose 0.4 µM) | 88.9 | 124 | 147 | 103 | 120 | 102 | 90.5 | 85.1 | 92.3 | 71.3 | 147 | 130 | 86.3 | 109 | 55.4 | 201 | 74.1 |  |  | 
O=C(O)c1ccc2c(c1)nc(Nc1cccc(Cl)c1)c1ccncc12 + COc1ccc(-c2ccc3c(N4CCOCC4)nc(N4C[C@@H](C)O[C@@H](C)C4)nc3n2)cc1CO [KU0063794] (first compound 0.4 µM, partner dose 0.02 µM) | 29.4 | 130 |  | 103 | 165 |  | 206 | 72 | 154 | 240 | 32.6 | 107 | 108 | 138 | 31.6 | 137 |  | 208 | 95 | 
C[C@@H](Oc1cc(-c2cnn(C3CCNCC3)c2)cnc1N)c1c(Cl)ccc(F)c1Cl [Crizotinib] + COCC[n+]1c2c(n(Cc3cnccn3)c1C)C(=O)c1ccccc1C2=O [YM155] (first compound 0.2 µM, partner dose 0.0004 µM) | 77.2 | 50.1 | 202 | 75.4 | 342 |  | 87.4 | 61.1 | 113 | 64.1 | 122 | 129 | 121 | 488 | 136 | 235 | 82.3 |  |  | 142

2 entries picked at random from those above:
Structure (SMILES) | cleaved PARP positive nuclei fraction (A101D) [%] | cleaved PARP positive nuclei fraction (A2058) [%] | cleaved PARP positive nuclei fraction (A375) [%] | cleaved PARP positive nuclei fraction (C32) [%] | cleaved PARP positive nuclei fraction (CBRC008) [%] | cleaved PARP positive nuclei fraction (CBRC013) [%] | cleaved PARP positive nuclei fraction (CBRC014) [%] | cleaved PARP positive nuclei fraction (CBRC016) [%] | cleaved PARP positive nuclei fraction (CBRC017) [%] | cleaved PARP positive nuclei fraction (COLO792) [%] | cleaved PARP positive nuclei fraction (COLO800) [%] | cleaved PARP positive nuclei fraction (COLO829) [%] | cleaved PARP positive nuclei fraction (G361) [%] | cleaved PARP positive nuclei fraction (IPC-298) [%] | cleaved PARP positive nuclei fraction (IST-MEL1) [%] | cleaved PARP positive nuclei fraction (LOXIMVI) [%] | cleaved PARP positive nuclei fraction (MEL-HO) [%] | cleaved PARP positive nuclei fraction (501Mel) [%] | cleaved PARP positive nuclei fraction (LB2518-MEL) [%] | cleaved PARP positive nuclei fraction (CBRC034) [%]
Cc1cc(Nc2cc(N3CCN(C)CC3)nc(/C=C/c3ccccc3)n2)n[nH]1 + CN(NC(=O)CC(=O)NN(C)C(=S)c1ccccc1)C(=S)c1ccccc1 [STA4783] (first compound 0.04 µM, partner dose 0.006 µM) | 81.3 | 85.6 | 1320 | 55.8 | 2040 | 141 | 866 | 189 | 391 | 90.8 | 150 | 247 | 89.5 | 96.9 | 73.3 | 51.8 | 74.8 |  |  | 
Cc1cc(Nc2cc(N3CCN(C)CC3)nc(/C=C/c3ccccc3)n2)n[nH]1 + O=C(O)C(=O)Nc1sc2c(c1C(=O)O)CCNC2 [TCS401] (first compound 0.04 µM, partner dose 1.66667 µM) | 51.2 | 114 |  | 148 | 57.1 |  | 95.8 | 44.6 | 97.4 | 92.4 | 116 | 187 | 21.4 | 58.7 | 75.6 | 73.4 |  | 198 | 122 | 
